We go through two substances from paper PMC8511046.

The target of the test is T1, vezatin (mouse (endogenous in mouse hippocampus)) (UniProt Q3ZK22).
T1 sequence: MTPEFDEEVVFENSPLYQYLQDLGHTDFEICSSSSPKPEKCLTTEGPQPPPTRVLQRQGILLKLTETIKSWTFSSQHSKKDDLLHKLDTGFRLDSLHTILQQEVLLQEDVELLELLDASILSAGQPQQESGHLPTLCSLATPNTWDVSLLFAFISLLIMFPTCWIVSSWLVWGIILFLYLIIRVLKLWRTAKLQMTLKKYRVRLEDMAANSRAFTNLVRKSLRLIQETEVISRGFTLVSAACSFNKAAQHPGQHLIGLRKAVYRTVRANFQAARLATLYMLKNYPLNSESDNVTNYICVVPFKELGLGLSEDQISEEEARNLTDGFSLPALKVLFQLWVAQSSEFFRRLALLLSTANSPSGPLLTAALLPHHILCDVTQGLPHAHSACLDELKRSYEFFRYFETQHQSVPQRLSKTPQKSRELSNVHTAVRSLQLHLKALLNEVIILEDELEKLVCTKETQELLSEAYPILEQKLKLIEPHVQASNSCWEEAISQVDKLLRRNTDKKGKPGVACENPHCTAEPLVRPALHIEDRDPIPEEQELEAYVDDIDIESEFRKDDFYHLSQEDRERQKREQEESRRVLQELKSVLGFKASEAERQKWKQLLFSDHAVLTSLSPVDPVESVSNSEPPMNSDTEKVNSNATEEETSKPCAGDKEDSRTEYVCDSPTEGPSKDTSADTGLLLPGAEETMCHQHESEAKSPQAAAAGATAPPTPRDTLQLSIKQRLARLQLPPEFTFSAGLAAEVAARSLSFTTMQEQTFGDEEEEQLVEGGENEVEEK
The experiment in a line: co-IP; whole protein extract of mouse brain (hippocampus) tissue, pre-cleared with IgG and Protein A + G agarose; antibody overnight at 4 °C, beads 3 h at 4 °C, five washes with lysis buffer; western blot; endogenous proteins. (In general: Immunoblotting shows a protein as a band on a membrane.)

No constants are given. Whether binding was seen depends on the method and setting. In cells and extracts the contact can be indirect.

Consider “protein phosphatase (PP) 1 (mouse (endogenous in mouse hippocampus)) (enzyme)”, for which the binding result is reported as “no binding”. As to “protein phosphatase (PP) 2A (mouse (endogenous in mouse hippocampus)) (enzyme)”, the binding result was “no binding”.
